What all share (test): co-IP
Assay [1] has as its target T1, MTBP wild type, C-terminally tagged (3xFlag-TEV2-GFP) (UniProt Q96DY7).
T1 sequence: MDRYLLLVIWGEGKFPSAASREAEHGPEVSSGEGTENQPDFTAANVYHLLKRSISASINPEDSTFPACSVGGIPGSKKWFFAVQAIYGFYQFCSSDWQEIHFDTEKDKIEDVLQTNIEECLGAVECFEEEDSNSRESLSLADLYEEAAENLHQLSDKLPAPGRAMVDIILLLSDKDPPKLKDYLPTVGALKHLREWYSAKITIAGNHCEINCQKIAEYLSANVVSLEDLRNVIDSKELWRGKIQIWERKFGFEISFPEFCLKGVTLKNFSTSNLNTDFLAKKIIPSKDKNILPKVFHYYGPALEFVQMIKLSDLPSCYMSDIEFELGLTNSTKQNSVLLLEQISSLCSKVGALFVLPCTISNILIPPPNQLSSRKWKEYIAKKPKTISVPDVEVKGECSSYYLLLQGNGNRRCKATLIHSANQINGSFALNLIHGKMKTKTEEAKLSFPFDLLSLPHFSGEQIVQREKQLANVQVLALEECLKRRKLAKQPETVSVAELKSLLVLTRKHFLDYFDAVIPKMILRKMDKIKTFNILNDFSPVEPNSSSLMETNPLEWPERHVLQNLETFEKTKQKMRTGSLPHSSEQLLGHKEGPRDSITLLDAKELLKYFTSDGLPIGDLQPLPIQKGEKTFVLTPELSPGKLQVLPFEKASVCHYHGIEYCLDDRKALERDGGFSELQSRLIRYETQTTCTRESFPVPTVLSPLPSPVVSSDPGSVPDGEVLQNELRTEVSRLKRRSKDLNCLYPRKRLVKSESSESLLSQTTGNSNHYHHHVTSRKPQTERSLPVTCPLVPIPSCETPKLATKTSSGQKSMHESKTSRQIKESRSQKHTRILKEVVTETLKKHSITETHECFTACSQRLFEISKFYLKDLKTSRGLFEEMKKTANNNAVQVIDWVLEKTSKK

Protein sequences, listed by entry. Tags and fused reporters are not part of them. Lines headed by an entry give the natural chain unless they say otherwise; changes in a name come on top.
UniProt P49336: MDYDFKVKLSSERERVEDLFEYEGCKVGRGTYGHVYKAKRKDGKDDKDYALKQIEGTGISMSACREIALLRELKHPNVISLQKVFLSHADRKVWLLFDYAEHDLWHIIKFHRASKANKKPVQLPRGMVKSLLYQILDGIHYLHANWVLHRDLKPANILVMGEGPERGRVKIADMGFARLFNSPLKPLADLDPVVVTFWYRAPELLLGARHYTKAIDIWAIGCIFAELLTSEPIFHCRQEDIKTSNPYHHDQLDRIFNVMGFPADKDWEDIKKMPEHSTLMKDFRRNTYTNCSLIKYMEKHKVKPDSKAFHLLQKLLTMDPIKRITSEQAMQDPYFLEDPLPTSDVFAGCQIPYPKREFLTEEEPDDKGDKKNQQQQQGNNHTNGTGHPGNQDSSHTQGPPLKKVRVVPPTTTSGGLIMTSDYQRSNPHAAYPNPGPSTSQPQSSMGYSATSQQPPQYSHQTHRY

Assay [2] deals with T2, MTBP-1D, single point mutant, C-terminally tagged (3xFlag-TEV2-GFP) (UniProt Q96DY7).
T2 sequence: T1 sequence with T687D

Assay [3] deals with T3, MTBP-7pm, seven point mutant, C-terminally tagged (3xFlag-TEV2-GFP) (UniProt Q96DY7).
T3 sequence: T1 sequence with L620D, P622D, L623D, F632A, V633D, L634D, T635A

Positions count from the first letter of the chain named. These are yes or no findings as the source states them, for the method shown. Binding seen in cells or lysates may run through a third protein. Some entries that bind do so weakly or less than the wild type. Tags and fused reporters may be left off the sequences shown.

On to “CDK8/CCNC kinase (from UniProt P49336 1-464; P24863 1-283) (complex)”, for which the binding result in assay [1] is “binds”; in assay [2], “no binding”; in assay [3], “no binding”.

For the origin of these results see paper doi:10.64898/2025.12.09.692982.
